The list shows a part of the results. Many values rest on one well or one pass, so single values are uncertain.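 Imaging used 1,536-well plates; nuclei positive for cleaved PARP by antibody were divided by total DNA-stained nuclei to yield the apoptosis fraction. Doses for screening kept most cells viable, and cell lines differ markedly in resting and induced cleaved-PARP levels.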
Assays:
Test in all cases: cleaved PARP positive nuclei fraction relative to DMSO control; melanoma cells; higher = more apoptosis
Conditions in all cases: library dose: low library concentration; 72 h
[1] = tested on: WM115
[2] = tested on: WM1716
[3] = tested on: WM1745
[4] = tested on: WM3526
[5] = tested on: WM3619
[6] = tested on: WM451Lu

COc1ccc(COc2ccc(Cc3cnc(N)nc3N)cc2OC)cc1 + COc1cc2ncnc(Nc3ccc(Oc4ccccc4)cc3)c2cc1OC [SrcI1] (first compound 1 µM, partner dose 2 µM)
cleaved PARP positive nuclei fraction [1]: 60.1%
cleaved PARP positive nuclei fraction [2]: 58.3%
cleaved PARP positive nuclei fraction [3]: 122%
cleaved PARP positive nuclei fraction [4]: 120%
cleaved PARP positive nuclei fraction [5]: 90.8%
cleaved PARP positive nuclei fraction [6]: 183%

COc1cc2ncnc(Nc3ccc(Oc4ccccc4)cc3)c2cc1OC + O=C(O)C(=O)Nc1sc2c(c1C(=O)O)CCNC2 [TCS401] (first compound 2 µM, partner dose 1.66667 µM)
cleaved PARP positive nuclei fraction [1]: 76.7%
cleaved PARP positive nuclei fraction [2]: 48.7%
cleaved PARP positive nuclei fraction [3]: 108%
cleaved PARP positive nuclei fraction [4]: 63.6%
cleaved PARP positive nuclei fraction [5]: 74.4%
cleaved PARP positive nuclei fraction [6]: 56.3%

COc1cc2c(Oc3ccc4[nH]c(C)cc4c3F)ncnc2cc1OCCCN1CCCC1 [cediranib] + COc1cc2ncnc(Nc3ccc(Oc4ccccc4)cc3)c2cc1OC [SrcI1] (first compound 0.4 µM, partner dose 2 µM)
cleaved PARP positive nuclei fraction [1]: 73.7%
cleaved PARP positive nuclei fraction [2]: 72.8%
cleaved PARP positive nuclei fraction [3]: 112%
cleaved PARP positive nuclei fraction [4]: 76.4%
cleaved PARP positive nuclei fraction [5]: 111%
cleaved PARP positive nuclei fraction [6]: 194%

COC(=O)c1sccc1S(=O)(=O)Nc1ccc(Nc2ccccc2)cc1OC + Oc1cc(-c2nc(-c3ccccc3)[nH]c2-c2ccncc2)ccc1Cl [L779450] (first compound 1 µM, partner dose 0.2 µM)
cleaved PARP positive nuclei fraction [1]: 82.6%
cleaved PARP positive nuclei fraction [2]: 152%
cleaved PARP positive nuclei fraction [3]: 115%
cleaved PARP positive nuclei fraction [4]: 90%
cleaved PARP positive nuclei fraction [5]: 91.8%
cleaved PARP positive nuclei fraction [6]: 90.9%

O=C(O)c1ccc(-c2c[nH]c3ncc(-c4ccccc4)cc23)cc1C1CCCC1 + COc1cc2ncnc(Nc3ccc(Oc4ccccc4)cc3)c2cc1OC [SrcI1] (first compound 0.16 µM, partner dose 2 µM)
cleaved PARP positive nuclei fraction [1]: 95.2%
cleaved PARP positive nuclei fraction [2]: 104%
cleaved PARP positive nuclei fraction [3]: 106%
cleaved PARP positive nuclei fraction [4]: 75.9%
cleaved PARP positive nuclei fraction [5]: 178%
cleaved PARP positive nuclei fraction [6]: 72.4%

COC(=O)c1sccc1S(=O)(=O)Nc1ccc(Nc2ccccc2)cc1OC + COc1ccc2c(c1)CCC1C2CCC2(C)C(NCCCCCCN3C(=O)C=CC3=O)CCC12 [U73122] (first compound 1 µM, partner dose 0.4 µM)
cleaved PARP positive nuclei fraction [1]: 128%
cleaved PARP positive nuclei fraction [2]: 58.9%
cleaved PARP positive nuclei fraction [3]: 110%
cleaved PARP positive nuclei fraction [4]: 367%
cleaved PARP positive nuclei fraction [5]: 92.6%
cleaved PARP positive nuclei fraction [6]: 29.3%

O=C(Nc1ccccc1)c1cc([N+](=O)[O-])ccc1Cl + COc1ccc2c(c1)CCC1C2CCC2(C)C(NCCCCCCN3C(=O)C=CC3=O)CCC12 [U73122] (first compound 2 µM, partner dose 0.4 µM)
cleaved PARP positive nuclei fraction [1]: 137%
cleaved PARP positive nuclei fraction [2]: 90.1%
cleaved PARP positive nuclei fraction [3]: 110%
cleaved PARP positive nuclei fraction [4]: 62.9%
cleaved PARP positive nuclei fraction [5]: 89.6%
cleaved PARP positive nuclei fraction [6]: 141%

CCc1ccc(CCOc2ccc(CC3SC(=O)NC3=O)cc2)nc1 (centres undefined) [pioglitazone] + CCN(CC)CCCCNc1ncc2cc(-c3cc(OC)cc(OC)c3)c(NC(=O)NC(C)(C)C)nc2n1 [PD173074] (first compound 2 µM, partner dose 0.1 µM)
cleaved PARP positive nuclei fraction [1]: 101%
cleaved PARP positive nuclei fraction [2]: 52.3%
cleaved PARP positive nuclei fraction [3]: 111%
cleaved PARP positive nuclei fraction [4]: 135%
cleaved PARP positive nuclei fraction [5]: 77.1%
cleaved PARP positive nuclei fraction [6]: 61.7%

COc1ccc(-c2ccc3c(N4CCOCC4)nc(N4C[C@@H](C)O[C@@H](C)C4)nc3n2)cc1CO + c1cc(-c2cnn3cc(-c4ccc(OCCN5CCCCC5)cc4)cnc23)ccn1 [Dorsomorphin] (first compound 0.02 µM, partner dose 0.4 µM)
cleaved PARP positive nuclei fraction [1]: 45.9%
cleaved PARP positive nuclei fraction [2]: 78.6%
cleaved PARP positive nuclei fraction [3]: 123%
cleaved PARP positive nuclei fraction [4]: 69.7%
cleaved PARP positive nuclei fraction [5]: 79.1%
cleaved PARP positive nuclei fraction [6]: 72.7%

COC(=O)c1sccc1S(=O)(=O)Nc1ccc(Nc2ccccc2)cc1OC + CC(C)CCN1c2nc(Nc3cc(F)c(O)c(F)c3)ncc2N(C)C(=O)C1C [BID1870] (first compound 1 µM, partner dose 0.2 µM)
cleaved PARP positive nuclei fraction [1]: 69.3%
cleaved PARP positive nuclei fraction [2]: 112%
cleaved PARP positive nuclei fraction [3]: 85.7%
cleaved PARP positive nuclei fraction [4]: 81.7%
cleaved PARP positive nuclei fraction [5]: 87%
cleaved PARP positive nuclei fraction [6]: 60.3%

COC(=O)c1sccc1S(=O)(=O)Nc1ccc(Nc2ccccc2)cc1OC + O=C(O)C(=O)Nc1sc2c(c1C(=O)O)CCNC2 [TCS401] (first compound 1 µM, partner dose 1.66667 µM)
cleaved PARP positive nuclei fraction [1]: 92%
cleaved PARP positive nuclei fraction [2]: 114%
cleaved PARP positive nuclei fraction [3]: 98.8%
cleaved PARP positive nuclei fraction [4]: 60.3%
cleaved PARP positive nuclei fraction [5]: 91.3%
cleaved PARP positive nuclei fraction [6]: 123%

NCC(=O)Nc1ccc(-n2nc(C(F)(F)F)cc2-c2ccc3c(ccc4ccccc43)c2)cc1 + c1cc(-c2cnn3cc(-c4ccc(OCCN5CCCCC5)cc4)cnc23)ccn1 [Dorsomorphin] (first compound 1 µM, partner dose 0.4 µM)
cleaved PARP positive nuclei fraction [1]: 109%
cleaved PARP positive nuclei fraction [2]: 96.5%
cleaved PARP positive nuclei fraction [3]: 114%
cleaved PARP positive nuclei fraction [4]: 116%
cleaved PARP positive nuclei fraction [5]: 72.7%
cleaved PARP positive nuclei fraction [6]: 82.2%

CCN(CC)CCCCNc1ncc2cc(-c3cc(OC)cc(OC)c3)c(NC(=O)NC(C)(C)C)nc2n1 + Cn1cc(/C=C2\C(=O)Nc3cccnc32)c2ccccc21 [GW441756] (first compound 0.1 µM, partner dose 0.4 µM)
cleaved PARP positive nuclei fraction [1]: 145%
cleaved PARP positive nuclei fraction [2]: 159%
cleaved PARP positive nuclei fraction [3]: 264%
cleaved PARP positive nuclei fraction [4]: 78.5%
cleaved PARP positive nuclei fraction [5]: 80.9%
cleaved PARP positive nuclei fraction [6]: 103%

NCC(=O)Nc1ccc(-n2nc(C(F)(F)F)cc2-c2ccc3c(ccc4ccccc43)c2)cc1 + COc1ccc(-c2ccc3c(N4CCOCC4)nc(N4C[C@@H](C)O[C@@H](C)C4)nc3n2)cc1CO [KU0063794] (first compound 1 µM, partner dose 0.02 µM)
cleaved PARP positive nuclei fraction [1]: 84.3%
cleaved PARP positive nuclei fraction [2]: 183%
cleaved PARP positive nuclei fraction [3]: 106%
cleaved PARP positive nuclei fraction [4]: 138%
cleaved PARP positive nuclei fraction [5]: 77.5%
cleaved PARP positive nuclei fraction [6]: 84%

— the supplement of paper PMC4604168 (melanoma cell lines)
